Measurements reported in PubChem BioAssay AID1259424 (University of Nebraska Medical Center, 2018)

- Test: 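Rank knockdowns across the genome by resemblance to the KSR1 depletion profile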 (primary screen)
- Cell system: human HCT116 colon cancer cells
- Reagent: siRNA pool against human genes, 50 nM
- Measurement: 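Six signature mRNAs by branched-DNA multiplex assay, scaled to two housekeeping genes and non-targeting median, log2; matched to mean KSR1 knockdown profile by Pearson correlation and euclidean distance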
- Reading the numbers: mean correlation with KSR1 profile: higher = expression change more like KSR1 knockdown; mean distance from KSR1 profile: higher = expression change less like KSR1 knockdown
This is a random part of about 14,000 deposited reagents. 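Higher correlation or smaller distance means closer resemblance to KSR1 loss; control wells, including KSR1 knockdowns, recur on many plates.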 Not all columns of the deposit are shown. Not stated in the record: the time to read-out.

KREMEN1 scored mean correlation with KSR1 profile -0.615; mean distance from KSR1 profile 1.72. For LTF the deposit lists mean correlation with KSR1 profile 0.317; mean distance from KSR1 profile 2.02. After knock-down of ZEB1, the screen gave mean correlation with KSR1 profile -0.375; mean distance from KSR1 profile 2.44. Depletion of ZNF223 came out at: mean correlation with KSR1 profile 0.291; mean distance from KSR1 profile 1.84. For CDK9, the values are mean correlation with KSR1 profile -0.0526; mean distance from KSR1 profile 2.29. For PIP5KL1 the deposit lists mean correlation with KSR1 profile -0.115; mean distance from KSR1 profile 2.21.

Knock-down of KCNA2 gave: mean correlation with KSR1 profile -0.175; mean distance from KSR1 profile 1.18. BTNL8 gave mean correlation with KSR1 profile 0.418; mean distance from KSR1 profile 2.29. UGGT1 gave mean correlation with KSR1 profile -0.492; mean distance from KSR1 profile 2.59. For PPP1R15A, the entry reads mean correlation with KSR1 profile 0.0725; mean distance from KSR1 profile 1.87. CCDC174 scored mean correlation with KSR1 profile -0.416; mean distance from KSR1 profile 1.53. With knock-down of KDM2B the results were mean correlation with KSR1 profile 0.831; mean distance from KSR1 profile 2.67.

Against PSMF1, the values are mean correlation with KSR1 profile 0.0387; mean distance from KSR1 profile 4.33. For LRRFIP2 the deposit lists mean correlation with KSR1 profile 0.364; mean distance from KSR1 profile 2.37. H3C11 gave mean correlation with KSR1 profile -0.441; mean distance from KSR1 profile 1.18. CACNB3 showed mean correlation with KSR1 profile -0.0115; mean distance from KSR1 profile 4.55. Depletion of LASP1 resulted in: mean correlation with KSR1 profile -0.408; mean distance from KSR1 profile 3.3. For C8A, the entry reads mean correlation with KSR1 profile -0.491; mean distance from KSR1 profile 1.93.

With knock-down of PRH1, the screen gave mean correlation with KSR1 profile 0.0944; mean distance from KSR1 profile 2.38.
